Assay results as given in article PMC3107201.
No constants are given. Whether binding was seen depends on the method and setting. Binding seen in cells or lysates may run through a third protein. Some results given as binding are weak or reduced against the parent protein; the word gives no strength.

Amino acid sequences for entries named in this document (tags omitted).
UniProt Q9UM07: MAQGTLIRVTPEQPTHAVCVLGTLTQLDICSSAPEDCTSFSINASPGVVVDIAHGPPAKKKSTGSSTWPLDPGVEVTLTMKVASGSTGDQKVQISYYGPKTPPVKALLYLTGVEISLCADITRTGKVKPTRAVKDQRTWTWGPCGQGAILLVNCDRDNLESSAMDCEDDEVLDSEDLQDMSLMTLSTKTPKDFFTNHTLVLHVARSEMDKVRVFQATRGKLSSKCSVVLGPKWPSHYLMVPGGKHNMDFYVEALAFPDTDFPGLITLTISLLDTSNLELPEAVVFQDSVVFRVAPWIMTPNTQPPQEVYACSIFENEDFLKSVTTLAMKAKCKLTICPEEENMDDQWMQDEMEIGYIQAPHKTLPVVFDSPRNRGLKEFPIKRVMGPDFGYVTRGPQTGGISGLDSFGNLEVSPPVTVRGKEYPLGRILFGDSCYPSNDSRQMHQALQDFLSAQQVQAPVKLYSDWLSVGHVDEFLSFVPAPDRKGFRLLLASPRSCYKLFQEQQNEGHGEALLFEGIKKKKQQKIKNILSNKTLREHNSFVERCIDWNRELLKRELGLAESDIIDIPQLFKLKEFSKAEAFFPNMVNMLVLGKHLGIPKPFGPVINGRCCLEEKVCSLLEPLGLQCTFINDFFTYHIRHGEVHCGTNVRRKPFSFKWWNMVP

B1: Elk-1 (Ets-like protein-1), endogenous in HEK293 cells (protein, UniProt P19419-1 1-428)
chain: MDPSVTLWQFLLQLLREQGNGHIISWTSRDGGEFKLVDAEEVARLWGLRKNKTNMNYDKLSRALRYYYDKNIIRKVSGQKFVYKFVSYPEVAGCSTEDCPPQPEVSVTSTMPNVAPAAIHAAPGDTVSGKPGTPKGAGMAGPGGLARSSRNEYMRSGLYSTFTIQSLQPQPPPHPRPAVVLPSAAPAGAAAPPSGSRSTSPSPLEACLEAEEAGLPLQVILTPPEAPNLKSEELNVEPGLGRALPPEVKVEGPKEELEVAGERGFVPETTKAEPEVPPQEGVPARLPAVVMDTAGQAGGHAASSPEISQPQKGRKPRDLELPLSPSLLGGPGPERTPGSGSGSGLQAPGPALTPSLLPTHTLTPVLLTPSSLPPSIHFWSTLSPIAPRSPAKLSFQFPSSGSAQVHIPSISVDGLSTPVVLSPGPQKP

Tests used:
[1] = biological target: T1, Elk-1 (Ets-like protein-1), endogenous in HEK293 cells (human (endogenous in HEK293)) (UniProt P19419); test: co-IP; reciprocal: whole cell lysates of HEK293 cells transfected with Flag-PADI4; endogenous Elk-1 precipitated with anti-Elk-1 antibody, normal rabbit IgG as control; western blot with anti-PADI4
T1 sequence: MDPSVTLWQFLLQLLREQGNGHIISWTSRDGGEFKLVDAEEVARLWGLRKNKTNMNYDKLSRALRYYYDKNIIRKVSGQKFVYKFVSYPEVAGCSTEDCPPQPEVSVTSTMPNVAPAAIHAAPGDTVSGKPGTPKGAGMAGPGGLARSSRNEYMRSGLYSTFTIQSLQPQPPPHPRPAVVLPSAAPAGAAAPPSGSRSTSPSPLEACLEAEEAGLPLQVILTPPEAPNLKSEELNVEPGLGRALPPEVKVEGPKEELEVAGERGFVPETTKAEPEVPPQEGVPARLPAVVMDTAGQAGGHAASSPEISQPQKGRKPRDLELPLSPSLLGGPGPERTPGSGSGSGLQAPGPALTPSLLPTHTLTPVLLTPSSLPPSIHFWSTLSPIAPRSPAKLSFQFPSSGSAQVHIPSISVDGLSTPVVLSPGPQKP

[2] = biological target: Flag-tagged PADI4 (peptidylarginine deiminase IV) (human) (UniProt Q9UM07); test: co-IP; whole cell lysates of HEK293 cells transfected with Flag-PADI4 or control vector; precipitated with anti-Flag M2 affinity gel; western blot with anti-Elk-1, anti-phospho-Elk-1 and anti-PADI4

Row | Molecule | binding [1] | binding [2]
1 | Flag-tagged PADI4 (peptidylarginine deiminase IV) (from UniProt Q9UM07 1-663) (enzyme) | binds | 
2 | B1 |  | binds
